Laboratory results taken from publication PMC3271067.

Biological target: T1, Kar3-3HA (S. cerevisiae) (UniProt P17119)
T1 sequence: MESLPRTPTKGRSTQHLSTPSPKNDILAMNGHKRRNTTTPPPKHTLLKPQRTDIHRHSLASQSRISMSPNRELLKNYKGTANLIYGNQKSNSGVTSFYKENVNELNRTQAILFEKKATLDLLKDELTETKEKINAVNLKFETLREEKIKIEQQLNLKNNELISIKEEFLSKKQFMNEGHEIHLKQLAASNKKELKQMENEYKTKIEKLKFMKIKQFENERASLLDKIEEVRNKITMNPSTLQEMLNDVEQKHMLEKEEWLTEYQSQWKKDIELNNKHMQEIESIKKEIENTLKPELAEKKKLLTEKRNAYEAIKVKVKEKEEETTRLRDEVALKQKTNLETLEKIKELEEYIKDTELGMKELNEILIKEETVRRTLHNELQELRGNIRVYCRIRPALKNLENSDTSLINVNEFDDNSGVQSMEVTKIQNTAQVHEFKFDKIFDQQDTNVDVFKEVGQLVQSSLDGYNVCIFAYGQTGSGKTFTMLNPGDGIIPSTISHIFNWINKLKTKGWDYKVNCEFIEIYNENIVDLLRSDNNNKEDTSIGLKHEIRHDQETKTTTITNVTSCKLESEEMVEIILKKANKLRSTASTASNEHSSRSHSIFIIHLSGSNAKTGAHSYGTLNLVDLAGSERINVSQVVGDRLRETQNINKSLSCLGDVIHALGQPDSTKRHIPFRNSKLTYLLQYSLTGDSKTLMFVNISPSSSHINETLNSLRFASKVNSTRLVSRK
Test: co-IP; as a1 (IP with anti-HA antibody), but cells carry the PGALCIK1-CC plasmid and overexpress CIK1-CC (galactose for 3 hrs)

binding: binds
Substance: Cik1-CC (coiled-coil domain of Cik1, expressed from the PGALCIK1-CC plasmid) (S. cerevisiae) (domain or fragment)

No constants are given. Whether binding was seen depends on the method and setting. Binding seen in cells or lysates may run through a third protein. Binding can be weak; no strength is given.
